The M2OR odorant receptor database
Residue numbers refer to the chain shown, from its start. The list shows a part of the results, in another mix than the full data. Calls are pooled over several reports, among them a noisy single-well screen. Some of the results follow.

Chains of the proteins cited; added tags and fusions are not shown. A line that says so, or that is headed by a name, gives the form on record, which may keep a tag or linker.
O51L1, as listed by the source: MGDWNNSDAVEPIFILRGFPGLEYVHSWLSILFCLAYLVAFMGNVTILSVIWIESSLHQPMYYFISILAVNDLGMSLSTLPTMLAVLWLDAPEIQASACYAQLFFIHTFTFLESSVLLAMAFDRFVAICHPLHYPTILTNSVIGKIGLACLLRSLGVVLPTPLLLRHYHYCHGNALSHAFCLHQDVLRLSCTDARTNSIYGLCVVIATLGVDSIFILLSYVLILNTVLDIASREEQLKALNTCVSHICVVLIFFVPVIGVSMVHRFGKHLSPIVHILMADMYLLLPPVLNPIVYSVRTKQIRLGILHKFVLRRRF

Tests used:
Settings in all cases: stereoisomer not certain
O51F1 = test system: T1, O51F1
T1 sequence (whole entry): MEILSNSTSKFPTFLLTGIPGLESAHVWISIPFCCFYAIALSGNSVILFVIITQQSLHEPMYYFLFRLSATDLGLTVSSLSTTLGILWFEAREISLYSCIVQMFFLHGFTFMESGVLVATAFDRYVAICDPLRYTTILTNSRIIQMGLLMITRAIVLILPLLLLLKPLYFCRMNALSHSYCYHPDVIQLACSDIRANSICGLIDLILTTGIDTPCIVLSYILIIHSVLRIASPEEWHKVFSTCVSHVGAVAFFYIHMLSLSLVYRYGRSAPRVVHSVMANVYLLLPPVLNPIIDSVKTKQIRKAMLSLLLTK
Summary of the method: (§1)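 Each entry records the cell line, G-protein, co-transfected protein and tags used. Methods varied with the source, often transient luciferase assays in mammalian cell lines. A receptor–molecule pair is called responsive (active) if the original authors judged its signal statistically different from baseline and non-responsive (inactive) otherwise.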

O51F2 = test system: T2, O51F2
T2 sequence (whole entry): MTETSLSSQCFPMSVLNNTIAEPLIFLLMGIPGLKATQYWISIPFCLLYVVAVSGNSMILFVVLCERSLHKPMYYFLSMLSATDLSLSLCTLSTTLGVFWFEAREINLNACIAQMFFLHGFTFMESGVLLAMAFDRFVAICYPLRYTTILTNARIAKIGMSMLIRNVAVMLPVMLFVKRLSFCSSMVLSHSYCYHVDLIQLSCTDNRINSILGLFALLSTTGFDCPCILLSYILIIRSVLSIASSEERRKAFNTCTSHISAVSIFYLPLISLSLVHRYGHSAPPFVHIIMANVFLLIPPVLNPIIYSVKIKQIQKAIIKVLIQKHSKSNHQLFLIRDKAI
Summary of the method: as §1

O51G1 = test system: T3, O51G1
T3 sequence (whole entry): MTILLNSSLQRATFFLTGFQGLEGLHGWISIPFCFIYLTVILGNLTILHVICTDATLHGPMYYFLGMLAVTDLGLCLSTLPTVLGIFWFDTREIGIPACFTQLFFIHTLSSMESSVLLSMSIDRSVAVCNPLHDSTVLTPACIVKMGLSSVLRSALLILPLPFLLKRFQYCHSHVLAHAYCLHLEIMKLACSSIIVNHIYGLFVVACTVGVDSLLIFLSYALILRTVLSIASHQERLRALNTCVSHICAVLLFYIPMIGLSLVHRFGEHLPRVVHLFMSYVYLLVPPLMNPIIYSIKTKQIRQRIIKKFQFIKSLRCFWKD
Summary of the method: as §1

O51G2 = test system: T4, O51G2
T4 sequence (whole entry): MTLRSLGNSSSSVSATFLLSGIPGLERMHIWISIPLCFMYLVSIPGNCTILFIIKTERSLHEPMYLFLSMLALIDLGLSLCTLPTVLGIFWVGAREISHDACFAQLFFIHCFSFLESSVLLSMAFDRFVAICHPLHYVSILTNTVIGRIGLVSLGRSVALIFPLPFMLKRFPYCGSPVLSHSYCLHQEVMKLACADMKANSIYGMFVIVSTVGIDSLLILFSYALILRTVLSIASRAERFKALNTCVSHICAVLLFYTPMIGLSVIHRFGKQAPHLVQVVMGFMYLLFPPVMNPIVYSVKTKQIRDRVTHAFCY
Summary of the method: as §1

O51J1 = test system: T5, O51J1
T5 sequence (whole entry): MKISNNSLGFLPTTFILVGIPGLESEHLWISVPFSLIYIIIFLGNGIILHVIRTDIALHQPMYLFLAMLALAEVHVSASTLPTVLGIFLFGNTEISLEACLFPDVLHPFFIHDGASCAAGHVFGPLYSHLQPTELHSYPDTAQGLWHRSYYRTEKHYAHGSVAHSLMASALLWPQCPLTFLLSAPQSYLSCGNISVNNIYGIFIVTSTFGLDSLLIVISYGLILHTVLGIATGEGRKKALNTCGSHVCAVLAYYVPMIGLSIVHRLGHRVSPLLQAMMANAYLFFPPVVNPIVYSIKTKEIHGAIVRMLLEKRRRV
Summary of the method: as §1

O51L1 [1] = test system: T6, O51L1
T6 sequence (whole entry): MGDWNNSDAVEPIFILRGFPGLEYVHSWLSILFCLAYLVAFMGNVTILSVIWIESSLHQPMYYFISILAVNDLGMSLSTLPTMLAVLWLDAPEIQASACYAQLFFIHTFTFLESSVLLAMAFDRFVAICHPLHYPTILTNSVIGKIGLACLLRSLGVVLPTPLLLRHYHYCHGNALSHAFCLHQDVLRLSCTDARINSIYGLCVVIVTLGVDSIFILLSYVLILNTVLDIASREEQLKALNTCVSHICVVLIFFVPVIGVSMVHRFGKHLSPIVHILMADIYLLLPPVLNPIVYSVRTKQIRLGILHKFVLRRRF
Summary of the method: as §1

O51L1 [2] = test system: T7, O51L1; remark: listed apart in the source
T7 sequence (whole entry): T6 sequence (whole entry) with I196T, V207A, I281M
Summary of the method: as §1

O51M1 = test system: T8, O51M1
T8 sequence (whole entry): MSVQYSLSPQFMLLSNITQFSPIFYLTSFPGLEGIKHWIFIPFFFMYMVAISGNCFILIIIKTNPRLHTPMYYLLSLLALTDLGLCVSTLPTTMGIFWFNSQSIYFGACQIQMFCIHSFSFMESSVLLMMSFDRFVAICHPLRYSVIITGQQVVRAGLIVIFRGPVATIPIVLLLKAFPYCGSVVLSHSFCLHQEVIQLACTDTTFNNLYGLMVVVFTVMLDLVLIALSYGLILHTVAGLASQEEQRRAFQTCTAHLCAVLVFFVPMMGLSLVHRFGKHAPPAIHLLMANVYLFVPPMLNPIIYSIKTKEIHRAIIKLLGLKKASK
Summary of the method: as §1

O51Q1 = test system: T9, O51Q1
T9 sequence (whole entry): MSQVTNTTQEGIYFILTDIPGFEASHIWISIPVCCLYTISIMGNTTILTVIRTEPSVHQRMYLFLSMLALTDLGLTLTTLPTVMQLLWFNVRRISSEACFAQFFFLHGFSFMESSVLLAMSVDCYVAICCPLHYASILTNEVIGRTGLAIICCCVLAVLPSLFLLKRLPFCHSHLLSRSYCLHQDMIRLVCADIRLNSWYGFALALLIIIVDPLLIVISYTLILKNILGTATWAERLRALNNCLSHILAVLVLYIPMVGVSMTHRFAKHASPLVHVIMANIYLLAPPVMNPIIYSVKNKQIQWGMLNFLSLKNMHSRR
Summary of the method: as §1

O51T1 = test system: T10, O51T1
T10 sequence (whole entry): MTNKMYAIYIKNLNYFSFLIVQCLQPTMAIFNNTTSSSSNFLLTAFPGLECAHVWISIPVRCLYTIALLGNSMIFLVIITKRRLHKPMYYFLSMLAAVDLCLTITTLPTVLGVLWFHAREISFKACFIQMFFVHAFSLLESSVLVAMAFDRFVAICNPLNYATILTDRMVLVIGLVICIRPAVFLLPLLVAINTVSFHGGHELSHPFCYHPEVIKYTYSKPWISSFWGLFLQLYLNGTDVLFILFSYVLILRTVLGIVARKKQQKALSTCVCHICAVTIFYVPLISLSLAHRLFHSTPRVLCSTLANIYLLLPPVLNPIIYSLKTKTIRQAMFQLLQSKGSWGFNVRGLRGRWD
Summary of the method: as §1

Measured: odorant receptor agonist call

CS
inactive: all assays above

CCC(C)=O
inactive: all assays above

CCCCOC(C)=O
inactive: all assays above
